# Data published in paper PMC7819943, “Rice protein-binding microarrays: a tool to detect cis-acting elements near promoter regions in rice”.
# By UniProt entry, the sequences of proteins in these tests, tags left out.
# UniProt Q0JBA9, entry or part of it: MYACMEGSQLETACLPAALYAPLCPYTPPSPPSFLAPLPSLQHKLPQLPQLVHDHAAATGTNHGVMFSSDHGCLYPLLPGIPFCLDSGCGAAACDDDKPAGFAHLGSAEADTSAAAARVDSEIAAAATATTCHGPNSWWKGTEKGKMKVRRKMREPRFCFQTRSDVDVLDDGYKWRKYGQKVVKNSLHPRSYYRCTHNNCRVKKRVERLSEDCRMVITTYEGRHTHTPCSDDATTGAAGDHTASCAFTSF
# The list shows a part of the results.
# Target: OsWRKY34 (Oryza sativa, UniProt Q0JBA9 1-250)
# Assay: protein-binding microarray (RPBM); PBS, 2% BSA, 51.3 ng/ul salmon testes DNA, 50 uM zinc acetate, 200 nM TF, 25 C, 1 h; high values mean tight binding
# Settings: protein: recombinant; tags: N-terminal polyhistidine and DsRed monomer fusion (pET32a); label: CyDye5-dUTP incorporated in the synthesized complementary strand; 3' TTTTT single-stranded linker to array surface; dsDNA, one strand shown
# Method in brief: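 Transcription factors were each fused at the N-terminus to a polyhistidine tag plus DsRed and expressed in E. coli BL21-CodonPlus before Ni–NTA purification. Binding to a double-stranded custom Agilent array was carried out with 200 nM protein at 25 °C for 1 h in PBS, 2% BSA, salmon testes DNA and 50 µM zinc acetate. The binding signal is per-feature fluorescence intensity, in arbitrary units, on an Axon 4000B scanner.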
row,Sequence,binding signal
1,GTATCATCTCATCTGCATGCCAGGACTCCTGTACAAGTTTCGGAGTCACCTAGTGCAG,11100 fluorescence intensity (a.u.)
2,CAAACGATCCTAAACTGCCACCTAACGCTTCCTACGAACACGGAGTCACCTAGTGCAG,8440 fluorescence intensity (a.u.)
3,ACAGCCATCCATTTAACTCTTATACACAAAATATATTAGTCGGAGTCACCTAGTGCAG,9150 fluorescence intensity (a.u.)
4,GGTTCAGAAGGCTAAGGCATTGTTTAGTTCCTAACTTTTTCGGAGTCACCTAGTGCAG,9840 fluorescence intensity (a.u.)
5,TCTCTTGTCGCCACCAAAAAGCTGACCGCCTGCTTCTACACGGAGTCACCTAGTGCAG,8440 fluorescence intensity (a.u.)
6,CCATACTACAACCTTCTCATTTTTCTATTATCACGTTTTCCGGAGTCACCTAGTGCAG,12000 fluorescence intensity (a.u.)
7,TAGGGGCTCTCTCCTCTCATTGACTGATTTGACCTGAATTCGGAGTCACCTAGTGCAG,9710 fluorescence intensity (a.u.)
8,TCCACTCCACTCCACCCCGCGATCTCCTCTCCTCTCGTCTCGGAGTCACCTAGTGCAG,11600 fluorescence intensity (a.u.)
9,GTAGTTTTGTGAAATTTACTTTTTTTTTTTTTTTTGATAACGGAGTCACCTAGTGCAG,9770 fluorescence intensity (a.u.)
10,TGTTTTGGTGGGTTGGTTTTTGGCCTTGGCTTGCATCTCACGGAGTCACCTAGTGCAG,10800 fluorescence intensity (a.u.)
11,TTTAGATTAGACTAGGTTATTTTTTATTTTCATAATCTTACGGAGTCACCTAGTGCAG,10500 fluorescence intensity (a.u.)
12,CGTCAATTAGTCGCAATATGTCCAATTAATTATTTTTTTACGGAGTCACCTAGTGCAG,8730 fluorescence intensity (a.u.)
13,CTAACGAACGAAACCCAAGCATCTAGCATCTCTGCCTACACGGAGTCACCTAGTGCAG,8300 fluorescence intensity (a.u.)
14,CCAACATTGACCAGTCGGCACTCACACCACTATATCCCTTCGGAGTCACCTAGTGCAG,10100 fluorescence intensity (a.u.)
15,GGCTTCATCACAGCATCCATCGCCGCCGGCCACCACCACCCGGAGTCACCTAGTGCAG,12700 fluorescence intensity (a.u.)
16,GGTCGGTAACAATTACCTTGCGAACTATCTGAAAAACTGCCGGAGTCACCTAGTGCAG,8510 fluorescence intensity (a.u.)
17,TTATTTAAAGGAGGCGGGGTAGGAGGGAGAGGGAGATAGGCGGAGTCACCTAGTGCAG,8960 fluorescence intensity (a.u.)
18,CCACCTCGCACGTGCGTCACGTGACGGGCTCCTCGGCCCACGGAGTCACCTAGTGCAG,8270 fluorescence intensity (a.u.)
19,CGCTAAATTTGTCTTTTTTATATCTCGATGTGTGAGTTGACGGAGTCACCTAGTGCAG,8640 fluorescence intensity (a.u.)
20,CTCTCCAGCCGTTTGACCAGACCATACCTGGCCAATTTACCGGAGTCACCTAGTGCAG,9010 fluorescence intensity (a.u.)
21,ATTGTTCATCTTTACAACATCACCCTTTTTGGATCACCACCGGAGTCACCTAGTGCAG,9440 fluorescence intensity (a.u.)

row,Sequence,binding signal
1,GCCCGTTCTCTCTCTCGCCTACGCCTTCCTCTCTTTTTCTCGGAGTCACCTAGTGCAG,11300 fluorescence intensity (a.u.)
2,GGAAATTTTGGCAACAACACATTGATCACATTCTACCAAACGGAGTCACCTAGTGCAG,8200 fluorescence intensity (a.u.)
3,ATCTTAGATTTTCCCAGACATACCATCTGACACTTTGCAACGGAGTCACCTAGTGCAG,8630 fluorescence intensity (a.u.)
4,AGTTCTTCTATGTTTAGCATGCAAATAGCCTCGTATCATACGGAGTCACCTAGTGCAG,9900 fluorescence intensity (a.u.)
5,CTCTCTCCAATCTCCATCTCTCTGTCTGATTTGTAATCTTCGGAGTCACCTAGTGCAG,16500 fluorescence intensity (a.u.)
6,GTAGAGGAGGGGACGGGGTTGCTTTTTATAGGCACAAGGGCGGAGTCACCTAGTGCAG,8300 fluorescence intensity (a.u.)
7,ATTCCTCGGTGTTATTCTTTCTGATCTTCCTTAACCAATACGGAGTCACCTAGTGCAG,10400 fluorescence intensity (a.u.)
8,CCTGCTATGGATTGGTTGGGATATTTTCATGAGATCTCTTCGGAGTCACCTAGTGCAG,8670 fluorescence intensity (a.u.)
9,CCAATCTCATCGTTACAGGATCTATGGGTTCTTCCTTATCCGGAGTCACCTAGTGCAG,8950 fluorescence intensity (a.u.)
10,TCTGAGGGCGGGGCGACTGCTACATCTAAGGCCGGGGTGACGGAGTCACCTAGTGCAG,12500 fluorescence intensity (a.u.)
11,TGAGTTTATTTTTTACATGGTTGGTTCCTGTGAGTTCCTACGGAGTCACCTAGTGCAG,9040 fluorescence intensity (a.u.)
12,ACTTACTTTCTCCGTTTCATCATGTAAGTCATTCTAGCATCGGAGTCACCTAGTGCAG,11600 fluorescence intensity (a.u.)
13,AAATTTGTATAGACGTTTGCTTTTAACTTAGTCCTAAATTCGGAGTCACCTAGTGCAG,9130 fluorescence intensity (a.u.)
14,ATATTTGACCAGAAATTAACGCTGCTGATGCGAGGTCAAACGGAGTCACCTAGTGCAG,8550 fluorescence intensity (a.u.)
15,CCTATCTCCTTCGTCTCTCTCTCTCAACTTCCACCACCGCCGGAGTCACCTAGTGCAG,8100 fluorescence intensity (a.u.)
16,AAGCTAATCCAATCCCCAGCTATCTATCTAGCTCGATCCACGGAGTCACCTAGTGCAG,8580 fluorescence intensity (a.u.)
17,GTCATGTATATCATTGTTTGGTCCCTACTGTTGCTAGTTGCGGAGTCACCTAGTGCAG,8560 fluorescence intensity (a.u.)
18,TCTATTCTCCAGTCAATACCAACTCGCCCCGAATCGATTCCGGAGTCACCTAGTGCAG,9200 fluorescence intensity (a.u.)
19,CGTTACTCCCGACATGCTTCACTGCTACATCTATATCTATCGGAGTCACCTAGTGCAG,15400 fluorescence intensity (a.u.)
20,CTTCGTATCTCTTTTGGTTATTTATTTTACAACTTTCAAGCGGAGTCACCTAGTGCAG,9860 fluorescence intensity (a.u.)
21,GGCTAACTTATGCCTTTTATCATTTTGTTGGTCATGATGTCGGAGTCACCTAGTGCAG,8960 fluorescence intensity (a.u.)

row,Sequence,binding signal
1,TCTCTTTGCTATCTCTACTTGCACATGTCATACATCTAGACGGAGTCACCTAGTGCAG,9940 fluorescence intensity (a.u.)
2,TTGCAATATCTGAAATTCTATTGACCATCTTGACTCTGTCCGGAGTCACCTAGTGCAG,8080 fluorescence intensity (a.u.)
3,ATAATTTATGTGTGACTATCTATCTATCTTTATCTATCTACGGAGTCACCTAGTGCAG,8330 fluorescence intensity (a.u.)
4,CGCGTCGCGTCACCATGCCAAGCTGTCCCAACCGTACACGCGGAGTCACCTAGTGCAG,8760 fluorescence intensity (a.u.)
5,TCTGCACCCAAAAGCCTCCTTCTTCTTCACTTGTCCTTGTCGGAGTCACCTAGTGCAG,9940 fluorescence intensity (a.u.)
6,AATTTTGTCTGGTTTTTCTATCGTTTACTACGGTACCGTGCGGAGTCACCTAGTGCAG,8300 fluorescence intensity (a.u.)
7,TAGTGTCTCTGCTCTCTGTCGGGTTGGTTCCTGCCTCTCGCGGAGTCACCTAGTGCAG,8080 fluorescence intensity (a.u.)
8,ATGCATGCTCGATCACACACACACACACGTTGTTGTTATCCGGAGTCACCTAGTGCAG,8740 fluorescence intensity (a.u.)
9,GTTGTCCTAGTCATCGGACGCCGCCCACCTACCCGACTACCGGAGTCACCTAGTGCAG,9920 fluorescence intensity (a.u.)
10,CCATCCCCTGCTTCGCCGGTCCAGGTCGGCTCAATCTCCTCGGAGTCACCTAGTGCAG,9850 fluorescence intensity (a.u.)
11,TTTTTTTTTTTTATGGGGTCCTGTGGGCGGAGTAGAACACCGGAGTCACCTAGTGCAG,11200 fluorescence intensity (a.u.)
12,ATTCATAAAATTCTGCCGCCTTCTTTTATTTCCTCACTTTCGGAGTCACCTAGTGCAG,9960 fluorescence intensity (a.u.)
13,GGACAGTAAAAAAAAACACAATTTGACCACGTTGACCAATCGGAGTCACCTAGTGCAG,11700 fluorescence intensity (a.u.)
14,AACACTCAACTAATCATACGCTGATGACTCACCCTTTTTTCGGAGTCACCTAGTGCAG,9593 ± 67.9 fluorescence intensity (a.u.)
15,TCTTCTCGCTCTCCTTTCGCTATTAACCTTCTCGACGCCGCGGAGTCACCTAGTGCAG,8170 fluorescence intensity (a.u.)
16,ACTCTGCTCTTATCTTTATAATTTCTTTAATTAATTAATTCGGAGTCACCTAGTGCAG,10300 fluorescence intensity (a.u.)
17,CACTATAAATTATCACCACCTCATTCCCGCCATGTCTCACCGGAGTCACCTAGTGCAG,14900 fluorescence intensity (a.u.)
18,CTTTCCTATGCATGGTGCATTATATTTCCTCTCTGCAATACGGAGTCACCTAGTGCAG,8490 fluorescence intensity (a.u.)
19,ACCCTATAGTTCAGCAAGTTGTTTTACTCATTACTCATTTCGGAGTCACCTAGTGCAG,10700 fluorescence intensity (a.u.)
20,TCAAAACGGCAACTGCATGACCTCCACCACCTCCACCTCCCGGAGTCACCTAGTGCAG,8840 fluorescence intensity (a.u.)
21,TGGCATATGCAAATTATTCTTTCGTGCCGTCCTTTTACAACGGAGTCACCTAGTGCAG,8280 fluorescence intensity (a.u.)

# A few values from the entries so far.
# In binding signal, TTGCAATATCTGAAATTCTATTGACCATCTTGACTCTGTCCGGAGTCACCTAGTGCAG is entered as 8080 fluorescence intensity (a.u.)
# In binding signal, ACAGCCATCCATTTAACTCTTATACACAAAATATATTAGTCGGAGTCACCTAGTGCAG is entered as 9150 fluorescence intensity (a.u.)
# In binding signal, ACCCTATAGTTCAGCAAGTTGTTTTACTCATTACTCATTTCGGAGTCACCTAGTGCAG is entered as 10700 fluorescence intensity (a.u.)
# In binding signal, GTAGAGGAGGGGACGGGGTTGCTTTTTATAGGCACAAGGGCGGAGTCACCTAGTGCAG is entered as 8300 fluorescence intensity (a.u.)
# In binding signal, AAGCTAATCCAATCCCCAGCTATCTATCTAGCTCGATCCACGGAGTCACCTAGTGCAG is entered as 8580 fluorescence intensity (a.u.)
# In binding signal, CCTATCTCCTTCGTCTCTCTCTCTCAACTTCCACCACCGCCGGAGTCACCTAGTGCAG is entered as 8100 fluorescence intensity (a.u.)

# Later entries.

row,Sequence,binding signal
1,CAAAACGCATGACTCCTAGCACAATCTTCTCCAGTTATCCCGGAGTCACCTAGTGCAG,9060 fluorescence intensity (a.u.)
2,GTCCTTCAACTTGATACCGAATCCCACTTTCGTCCTTGAACGGAGTCACCTAGTGCAG,8180 fluorescence intensity (a.u.)
3,CCTCATATTTCTCCTTGCATATACACTGTCTGCACCCACCCGGAGTCACCTAGTGCAG,9820 fluorescence intensity (a.u.)
4,GAACGTGACTTGTCATACTTGCCACATTACGCTGATCTTTCGGAGTCACCTAGTGCAG,9960 fluorescence intensity (a.u.)
5,AGTCCGTCCACCTCGGGTTCCGCGTCAATCACGCTAGCCCCGGAGTCACCTAGTGCAG,10900 fluorescence intensity (a.u.)
6,GATCGTTTCTATTCCTAATTCGTTTTCTTTATACTCCCTCCGGAGTCACCTAGTGCAG,11100 fluorescence intensity (a.u.)
7,CCCTTGCACGAATCTCAAAGGCCTCGTCACCGTCCGATCGCGGAGTCACCTAGTGCAG,8020 fluorescence intensity (a.u.)
8,TCATGTCCAAATCACGTCTCCATCTTCTTCTATCTCATCCCGGAGTCACCTAGTGCAG,8340 fluorescence intensity (a.u.)
9,GTAGTTGGGGTAGGATATAGAAAAGTTTGAATTAGAATAACGGAGTCACCTAGTGCAG,11600 fluorescence intensity (a.u.)
10,GTAGCGTACTATTTATATCTAAATTTATCTTTTTTGTTTCCGGAGTCACCTAGTGCAG,8130 fluorescence intensity (a.u.)
11,CCCATCTCGCCCTGTCCCGGCCTACATCCAAGCTTGAAATCGGAGTCACCTAGTGCAG,16000 fluorescence intensity (a.u.)
12,TAATTCGATTACTGTCAACTGTACGTGTTATTTATACTACCGGAGTCACCTAGTGCAG,8220 fluorescence intensity (a.u.)
13,ACAGTTTCAGGCCCAGCTTTTCTTCTCCTTGCTTTTGATCCGGAGTCACCTAGTGCAG,9680 fluorescence intensity (a.u.)
14,GAACATTTCTTCTCTCCAATCAAATGTACGGACGGCTAAACGGAGTCACCTAGTGCAG,8520 fluorescence intensity (a.u.)
15,TTCTGATTAACTGTCTGCTACTCTTGAAAGCTGCACTCGACGGAGTCACCTAGTGCAG,9920 fluorescence intensity (a.u.)
16,CAAGCGCTCACAGCCCAAACTTCCCACATTTTCCTTGGTTCGGAGTCACCTAGTGCAG,9710 fluorescence intensity (a.u.)
17,CTCTATGTACACATTGTTTTTTTATTGGACATTAATTGATCGGAGTCACCTAGTGCAG,8620 fluorescence intensity (a.u.)
18,ACCAAAATTGACTTAAATGTTGTTATATTTTTCTGTCCTACGGAGTCACCTAGTGCAG,8800 fluorescence intensity (a.u.)
19,TCTCCTCAGTCTTCACTATACTATTCCTATTACTAATAACCGGAGTCACCTAGTGCAG,9050 fluorescence intensity (a.u.)
20,CCTCCCTATTCGATTTAGCTAAACATGTGTTTTTTCATTTCGGAGTCACCTAGTGCAG,8460 fluorescence intensity (a.u.)
21,GTCACCTTAACCTCAGTGTTGTTTCACCTGCCACGCCAGCCGGAGTCACCTAGTGCAG,9060 fluorescence intensity (a.u.)
